From the supplement of paper PMC4604168 (melanoma cell lines)
Some of the results follow. Repeats are few or missing, and single values can be far off.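 Cells were imaged in 1,536-well plates, and nuclei stained with an antibody against cleaved PARP were counted against all DNA-stained nuclei to give the apoptosis fraction. Screening doses were chosen to leave most cells alive, and resting and induced cleaved-PARP levels differ strongly between cell lines.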

System: UACC257
Assay: cleaved PARP positive nuclei fraction relative to DMSO control; melanoma cells; higher = more apoptosis
Conditions: library dose: low library concentration; 72 h

Compound | cleaved PARP positive nuclei fraction
O=C(Nc1ccccc1)c1cc([N+](=O)[O-])ccc1Cl + O=S(=O)(c1ccccc1)N(CC(F)(F)F)c1ccc(C(O)(C(F)(F)F)C(F)(F)F)cc1 [T0901317] (first compound 2 µM, partner dose 1.4 µM) | 68.1%
CN(C)S(=O)(=O)c1ccc2c(c1)/C(=C/c1cc3c([nH]1)CCCC3)C(=O)N2 + NCC(=O)Nc1ccc(-n2nc(C(F)(F)F)cc2-c2ccc3c(ccc4ccccc43)c2)cc1 [OSU03012] (first compound 0.4 µM, partner dose 1 µM) | 142%
N#Cc1c(O)c2c(-c3ccc(-c4ccccc4O)cc3)csc2[nH]c1=O + O=S(=O)(c1ccccc1)N(CC(F)(F)F)c1ccc(C(O)(C(F)(F)F)C(F)(F)F)cc1 [T0901317] (first compound 2 µM, partner dose 1.4 µM) | 214%
NCC(=O)Nc1ccc(-n2nc(C(F)(F)F)cc2-c2ccc3c(ccc4ccccc43)c2)cc1 + COc1cc2c(Oc3ccc4[nH]c(C)cc4c3F)ncnc2cc1OCCCN1CCCC1 [cediranib] (first compound 1 µM, partner dose 0.4 µM) | 55.1%
CN(NC(=O)CC(=O)NN(C)C(=S)c1ccccc1)C(=S)c1ccccc1 + c1cc(-c2cnn3cc(-c4ccc(OCCN5CCCCC5)cc4)cnc23)ccn1 [Dorsomorphin] (first compound 0.006 µM, partner dose 0.4 µM) | 255%
COc1cc2c(Oc3ccc4[nH]c(C)cc4c3F)ncnc2cc1OCCCN1CCCC1 [cediranib] + c1cc(-c2cnn3cc(-c4ccc(OCCN5CCCCC5)cc4)cnc23)ccn1 [Dorsomorphin] (first compound 0.4 µM, partner dose 0.4 µM) | 93.9%
CN(NC(=O)CC(=O)NN(C)C(=S)c1ccccc1)C(=S)c1ccccc1 + N#Cc1c(O)c2c(-c3ccc(-c4ccccc4O)cc3)csc2[nH]c1=O [A769662] (first compound 0.006 µM, partner dose 2 µM) | 117%
O=C(O)c1ccc(-c2c[nH]c3ncc(-c4ccccc4)cc23)cc1C1CCCC1 + CN(NC(=O)CC(=O)NN(C)C(=S)c1ccccc1)C(=S)c1ccccc1 [STA4783] (first compound 0.16 µM, partner dose 0.006 µM) | 159%
CN(C)S(=O)(=O)c1ccc2c(c1)/C(=C/c1cc3c([nH]1)CCCC3)C(=O)N2 + CC(C)CCN1c2nc(Nc3cc(F)c(O)c(F)c3)ncc2N(C)C(=O)C1C [BID1870] (first compound 0.4 µM, partner dose 0.2 µM) | 41.3%
CN(NC(=O)CC(=O)NN(C)C(=S)c1ccccc1)C(=S)c1ccccc1 + COc1cc2c(Oc3ccc4[nH]c(C)cc4c3F)ncnc2cc1OCCCN1CCCC1 [cediranib] (first compound 0.006 µM, partner dose 0.4 µM) | 59.8%
COC(=O)c1sccc1S(=O)(=O)Nc1ccc(Nc2ccccc2)cc1OC + COc1ccc(-c2ccc3c(N4CCOCC4)nc(N4C[C@@H](C)O[C@@H](C)C4)nc3n2)cc1CO [KU0063794] (first compound 1 µM, partner dose 0.02 µM) | 140%
COc1ccc2c(c1)CCC1C2CCC2(C)C(NCCCCCCN3C(=O)C=CC3=O)CCC12 (stereo not drawn) + COc1cc(N2CCC(N3CCN(C)CC3)CC2)ccc1Nc1ncc(Cl)c(Nc2ccccc2S(=O)(=O)C(C)C)n1 [NVP-TAE684] (first compound 0.4 µM, partner dose 0.08 µM) | 124%
O=C(O)C(=O)Nc1sc2c(c1C(=O)O)CCNC2 + COc1cc(N2CCC(N3CCN(C)CC3)CC2)ccc1Nc1ncc(Cl)c(Nc2ccccc2S(=O)(=O)C(C)C)n1 [NVP-TAE684] (first compound 1.66667 µM, partner dose 0.08 µM) | 95.2%
CCCCCCCCCCCC1=C(O)C(=O)C=C(O)C1=O [Embelin] + O=c1cc(-c2cccc3c2Sc2ccccc2S3)oc(N2CCOCC2)c1 [KU55933] (first compound 1.2 µM, partner dose 1 µM) | 210%
COc1cc2ncnc(Nc3ccc(Oc4ccccc4)cc3)c2cc1OC + CC(C)CCN1c2nc(Nc3cc(F)c(O)c(F)c3)ncc2N(C)C(=O)C1C [BID1870] (first compound 2 µM, partner dose 0.2 µM) | 90%
N#Cc1c(O)c2c(-c3ccc(-c4ccccc4O)cc3)csc2[nH]c1=O + COC(=O)c1sccc1S(=O)(=O)Nc1ccc(Nc2ccccc2)cc1OC [GSK0660] (first compound 2 µM, partner dose 1 µM) | 79.8%
NCC(=O)Nc1ccc(-n2nc(C(F)(F)F)cc2-c2ccc3c(ccc4ccccc43)c2)cc1 + CN(NC(=O)CC(=O)NN(C)C(=S)c1ccccc1)C(=S)c1ccccc1 [STA4783] (first compound 1 µM, partner dose 0.006 µM) | 76.9%

Nothing new here: an excerpt of the list.
Compound | cleaved PARP positive nuclei fraction
CN(C)S(=O)(=O)c1ccc2c(c1)/C(=C/c1cc3c([nH]1)CCCC3)C(=O)N2 + NCC(=O)Nc1ccc(-n2nc(C(F)(F)F)cc2-c2ccc3c(ccc4ccccc43)c2)cc1 [OSU03012] (first compound 0.4 µM, partner dose 1 µM) | 142%
N#Cc1c(O)c2c(-c3ccc(-c4ccccc4O)cc3)csc2[nH]c1=O + O=S(=O)(c1ccccc1)N(CC(F)(F)F)c1ccc(C(O)(C(F)(F)F)C(F)(F)F)cc1 [T0901317] (first compound 2 µM, partner dose 1.4 µM) | 214%

Following part.

Compound | cleaved PARP positive nuclei fraction
NCC(=O)Nc1ccc(-n2nc(C(F)(F)F)cc2-c2ccc3c(ccc4ccccc43)c2)cc1 + COc1cc(N2CCC(N3CCN(C)CC3)CC2)ccc1Nc1ncc(Cl)c(Nc2ccccc2S(=O)(=O)C(C)C)n1 [NVP-TAE684] (first compound 1 µM, partner dose 0.08 µM) | 267%
CCc1ccc(CCOc2ccc(CC3SC(=O)NC3=O)cc2)nc1 (stereo not drawn) [pioglitazone] + O=C(O)C(=O)Nc1sc2c(c1C(=O)O)CCNC2 [TCS401] (first compound 2 µM, partner dose 1.66667 µM) | 83.7%
CCN(CC)CCCCNc1ncc2cc(-c3cc(OC)cc(OC)c3)c(NC(=O)NC(C)(C)C)nc2n1 + Oc1cc(-c2nc(-c3ccccc3)[nH]c2-c2ccncc2)ccc1Cl [L779450] (first compound 0.1 µM, partner dose 0.2 µM) | 91.1%
O=C1NC(=O)/C(=C/c2ccc(-c3ccc(F)cc3O)o2)S1 + Cc1cc([N+](=O)[O-])ccc1NS(=O)(=O)c1cc(Cl)ccc1Cl [FH535] (first compound 1 µM, partner dose 1 µM) | 211%
c1cc(-c2cnn3cc(-c4ccc(OCCN5CCCCC5)cc4)cnc23)ccn1 [Dorsomorphin] + CCCCCCCCCCCC1=C(O)C(=O)C=C(O)C1=O [Embelin] (first compound 0.4 µM, partner dose 1.2 µM) | 86.2%
COC(=O)c1sccc1S(=O)(=O)Nc1ccc(Nc2ccccc2)cc1OC + O=C(O)C(=O)Nc1sc2c(c1C(=O)O)CCNC2 [TCS401] (first compound 1 µM, partner dose 1.66667 µM) | 233%
O=C(Nc1ccccc1)c1cc([N+](=O)[O-])ccc1Cl + COc1ccc(-c2ccc3c(N4CCOCC4)nc(N4C[C@@H](C)O[C@@H](C)C4)nc3n2)cc1CO [KU0063794] (first compound 2 µM, partner dose 0.02 µM) | 32%
O=C(O)c1ccc(-c2c[nH]c3ncc(-c4ccccc4)cc23)cc1C1CCCC1 + COc1cc2c(Oc3ccc4[nH]c(C)cc4c3F)ncnc2cc1OCCCN1CCCC1 [cediranib] (first compound 0.16 µM, partner dose 0.4 µM) | 37.6%
CN(C)S(=O)(=O)c1ccc2c(c1)/C(=C/c1cc3c([nH]1)CCCC3)C(=O)N2 + CN(NC(=O)CC(=O)NN(C)C(=S)c1ccccc1)C(=S)c1ccccc1 [STA4783] (first compound 0.4 µM, partner dose 0.006 µM) | 88.1%
O=C(O)c1ccc(-c2c[nH]c3ncc(-c4ccccc4)cc23)cc1C1CCCC1 + NCC(=O)Nc1ccc(-n2nc(C(F)(F)F)cc2-c2ccc3c(ccc4ccccc43)c2)cc1 [OSU03012] (first compound 0.16 µM, partner dose 1 µM) | 165%
CN(C)S(=O)(=O)c1ccc2c(c1)/C(=C/c1cc3c([nH]1)CCCC3)C(=O)N2 + COc1cc2c(Oc3ccc4[nH]c(C)cc4c3F)ncnc2cc1OCCCN1CCCC1 [cediranib] (first compound 0.4 µM, partner dose 0.4 µM) | 105%
COC(=O)c1sccc1S(=O)(=O)Nc1ccc(Nc2ccccc2)cc1OC + Oc1cc(-c2nc(-c3ccccc3)[nH]c2-c2ccncc2)ccc1Cl [L779450] (first compound 1 µM, partner dose 0.2 µM) | 129%
O=C1NC(=O)/C(=C/c2ccc(-c3ccc(F)cc3O)o2)S1 + CCCCCCCCCCCC1=C(O)C(=O)C=C(O)C1=O [Embelin] (first compound 1 µM, partner dose 1.2 µM) | 139%
COc1cc(N2CCC(N3CCN(C)CC3)CC2)ccc1Nc1ncc(Cl)c(Nc2ccccc2S(=O)(=O)C(C)C)n1 + CC(C)CCN1c2nc(Nc3cc(F)c(O)c(F)c3)ncc2N(C)C(=O)C1C [BID1870] (first compound 0.08 µM, partner dose 0.2 µM) | 201%
CN(C)S(=O)(=O)c1ccc2c(c1)/C(=C/c1cc3c([nH]1)CCCC3)C(=O)N2 + O=C(O)c1ccc(-c2c[nH]c3ncc(-c4ccccc4)cc23)cc1C1CCCC1 [GSK650394] (first compound 0.4 µM, partner dose 0.16 µM) | 59.8%
COc1cc2ncnc(Nc3ccc(Oc4ccccc4)cc3)c2cc1OC + O=C1NC(=O)/C(=C/c2ccc(-c3ccc(F)cc3O)o2)S1 [AS252424] (first compound 2 µM, partner dose 1 µM) | 160%
